According to paper doi:10.1101/2023.12.05.570232:

Legend:
[1] = target: TbPam16-HA (RNAi-resistant, full-length TbPam16 with C-terminal HA-tag) (T. brucei) (UniProt Q38D74); assay: affinity purification with mass spectrometry
[2] = target: TbPam16-HA (RNAi-resistant, full-length TbPam16 with C-terminal HA-tag) (T. brucei) (UniProt Q38D74); assay: affinity purification with mass spectrometry; remark: listed apart in the source

binding [1]	binding [2]	Substance
binds		Tb927.8.4190 (from UniProt Q57W16)
binds		TbCOQ9 (from UniProt Q57UL9)
binds	binds	TbPam18 (from UniProt Q57YN2)

Where two headings read alike, the source gives them in different places. Results are given in words; binding and its absence hold for the method and conditions named. In cells and extracts the contact can be indirect. These calls come from enrichment with a bait or labelling near it, and not all partners need be listed.
